According to patent US20250082654A1, “AZD3355 (LESOGABERAN) FOR TREATMENT AND PREVENTION OF NONALCOHOLIC STEATOHEPATITIS (NASH), LIVER FIBROSIS, AND OTHER LIVER CONDITIONS” (Icahn School of Medicine at Mount Sinai, priority 2018, published 2025):
At least one compound was matched to its structure with a doubt left.

Experiments:
Type in all cases: in vivo
NASH model mice [1] = experiment: NASH mouse model, tumor development in the liver; settings: male and female NASH model mice; AZD3355 at either dose, OCA 30 mg/kg
NASH model mice [2] = experiment: NASH mouse model, liver enzymes and lipid panel analysis; settings: male and female NASH model mice, 12 weeks treatment
NASH model mice [3] = experiment: NASH mouse model, fibrogenic gene expression in liver tissue by RT-qPCR; settings: AZD3355 at both dosages, OCA
NASH model mice [4] = experiment: NASH mouse model, fibrogenic protein expression in liver tissue by western blot; settings: male and female NASH mice
NASH model mice [5] = experiment: NASH mouse model, picrosirius red/fast green staining and morphometric measurement of collagen; settings: male and female NASH mice
NASH model mice [6] = experiment: NASH mouse model, histopathological scoring of liver sections
Method: Four separate groups of mice were given either 0.5% methylcellulose (as Vehicle) or AZD3355 at 10 mg/kg (low dose) body weight of mice or 30 mg/kg (high dose) body weight of mice by twice daily (BID (5 days/week)) and OCA at 30 mg/kg body weight of mice by daily (QD (5 days/week)) through oral route for up to next 12 weeks (week 13 to week 24). Them last group of mice were not given any drug or vehicle treatment, as No Tx—24 weeks and maintained in parallel with treatment/vehicle groups. Usually all doses were given at early morning and the second daily dose of AZD3355 at evening (10 hours of intervals). All animals were closely monitored the health conditions and behavior. […]
Steatosis, hepatocyte ballooning, lobular inflammation, portal inflammation and fibrosis of picroserious red/fast green and H&E stained liver section were scored according to the NASH Clinical Research Network (NASH CRN) scoring system in a blinded fashion by an expert hepato-pathologist in Icahn School of Medicine at Mount Sinai. NAFLD activity score (NAS) was calculated according to Brunt criteria and range from 0-8. NAS was calculated by the sum of scores of steatosis (0-3), hepatocyte ballooning (0-2) and lobular inflammation (0-3). […] Fibrosis (0-4) or portal inflammation (0-3) scores were assessed separately and not included in NAS.

Compound: CC[C@H]1[C@@H](O)[C@@H]2[C@H](CC[C@]3(C)[C@@H]([C@H](C)CCC(=O)O)CC[C@@H]23)[C@@]2(C)CC[C@@H](O)C[C@@H]12 [OCA, Obeticholic acid, reference compound]
- tumor development in the liver (NASH model mice [1]): reduced
- necro-inflammatory activity (liver enzymes) (NASH model mice [2]): improved
- gene expression of the profibrotic genes in liver (NASH model mice [3]): reduced
- protein expression of both Col1α1 and αSMA in liver (NASH model mice [4]): reduced
- total fibrosis and hepatic collagen accumulation (NASH model mice [5]): reduced
- NAFLD activity (NAS) (NASH model mice [6]; NASH model mice): indicated towards the reduction
- fibrosis and steatohepatitis (histopathological scores) (NASH model mice [6]; male and female NASH model mice): indicated towards the reduction
